Among the data in patent US20230181681A1, “PEPTIDE FOR SUPPRESSING CORONAVIRUS AND USE THEREOF” (priority 2020, published 2023) are binding values, retold here.

Amino acid sequences for entries named in this document (tags omitted). Residues count along the entry.
UniProt P33469: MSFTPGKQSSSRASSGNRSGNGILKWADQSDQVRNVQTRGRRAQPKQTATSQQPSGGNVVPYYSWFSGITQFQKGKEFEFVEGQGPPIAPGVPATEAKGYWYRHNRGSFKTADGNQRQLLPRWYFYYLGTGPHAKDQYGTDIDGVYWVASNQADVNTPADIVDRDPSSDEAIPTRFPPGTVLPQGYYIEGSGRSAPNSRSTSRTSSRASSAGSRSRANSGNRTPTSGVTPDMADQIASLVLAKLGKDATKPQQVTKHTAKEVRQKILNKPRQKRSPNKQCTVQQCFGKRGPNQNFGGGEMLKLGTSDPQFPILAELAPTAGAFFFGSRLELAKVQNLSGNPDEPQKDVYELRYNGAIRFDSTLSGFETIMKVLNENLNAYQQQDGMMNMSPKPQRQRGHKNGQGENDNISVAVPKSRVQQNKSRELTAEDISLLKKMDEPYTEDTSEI
UniProt P36334, residues 14-1353: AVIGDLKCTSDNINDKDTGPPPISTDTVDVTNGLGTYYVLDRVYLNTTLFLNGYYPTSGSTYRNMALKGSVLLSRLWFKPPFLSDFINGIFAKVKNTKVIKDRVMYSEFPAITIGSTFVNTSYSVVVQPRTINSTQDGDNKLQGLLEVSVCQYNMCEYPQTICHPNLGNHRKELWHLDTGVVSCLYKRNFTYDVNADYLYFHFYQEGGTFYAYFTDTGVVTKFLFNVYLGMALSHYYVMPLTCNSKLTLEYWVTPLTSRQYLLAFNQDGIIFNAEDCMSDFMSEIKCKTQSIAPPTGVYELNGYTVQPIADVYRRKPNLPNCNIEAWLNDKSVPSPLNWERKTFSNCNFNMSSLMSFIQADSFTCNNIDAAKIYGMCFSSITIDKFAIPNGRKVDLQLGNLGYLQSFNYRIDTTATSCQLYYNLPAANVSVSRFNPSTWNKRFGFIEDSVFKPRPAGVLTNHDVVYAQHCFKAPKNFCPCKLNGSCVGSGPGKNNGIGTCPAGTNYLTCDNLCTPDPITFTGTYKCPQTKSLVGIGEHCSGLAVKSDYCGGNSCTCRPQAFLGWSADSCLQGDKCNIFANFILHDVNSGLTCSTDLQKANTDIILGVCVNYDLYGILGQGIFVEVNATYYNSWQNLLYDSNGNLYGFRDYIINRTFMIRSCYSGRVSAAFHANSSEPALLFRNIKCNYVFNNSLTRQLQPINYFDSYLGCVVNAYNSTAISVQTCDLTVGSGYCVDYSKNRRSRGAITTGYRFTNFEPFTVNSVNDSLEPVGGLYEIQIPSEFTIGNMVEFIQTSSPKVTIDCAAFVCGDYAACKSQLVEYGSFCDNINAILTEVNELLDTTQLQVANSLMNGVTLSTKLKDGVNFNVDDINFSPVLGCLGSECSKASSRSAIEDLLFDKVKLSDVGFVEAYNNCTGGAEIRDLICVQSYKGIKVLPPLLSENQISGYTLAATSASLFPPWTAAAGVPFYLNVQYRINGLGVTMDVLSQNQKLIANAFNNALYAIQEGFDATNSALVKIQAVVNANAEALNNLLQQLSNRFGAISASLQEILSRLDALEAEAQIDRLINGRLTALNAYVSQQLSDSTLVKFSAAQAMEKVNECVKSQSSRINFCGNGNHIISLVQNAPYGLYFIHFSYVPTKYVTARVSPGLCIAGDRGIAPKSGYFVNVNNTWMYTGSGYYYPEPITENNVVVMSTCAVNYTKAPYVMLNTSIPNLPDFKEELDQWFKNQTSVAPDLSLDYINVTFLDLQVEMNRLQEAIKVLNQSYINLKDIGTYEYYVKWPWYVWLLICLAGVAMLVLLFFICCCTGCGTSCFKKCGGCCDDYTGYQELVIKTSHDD

The target in the test is HCoV-OC43 N protein (HCoV-OC43) (UniProt P33469). The test is described as follows: co-immunoprecipitation with anti-S Ab, Western blot with anti-N mAb (FIG. 19B).

No constants are given. Whether binding was seen depends on the method and setting. Binding seen in cells or lysates may run through a third protein. Some binding calls cover weakened binding; strength is not graded here.

On to “HCoV-OC43 S protein (from UniProt P36334 14-1353)”, for which the binding entry was “binds”.
